# Measured values: patent publication US8641948B2, “Method of making solid dispersions of highly crystalline therapeutic compounds” (Novartis AG, priority 2006, dated 2014)
# For at least one compound, name, drawing or mass did not settle the structure.
# Assay: Powder x-ray diffraction of melt-extruded solid dispersion vs physical mixture
# Format: physicochemical
# Conditions: solid dispersion of Table 2 (10% midostaurin, 40% polyvinyl pyrrolidone, 40% poloxamer 188, 10% sorbitol), extruded at 150° C.; FIG. 1; halo, no sharp peaks
smiles,measurement,value
CO[C@@H]1[C@H](N(C)C(=O)c2ccccc2)C[C@H]2O[C@]1(C)n1c3ccccc3c3c4c(c5c6ccccc6n2c5c31)C(=O)NC4 [midostaurin],physical state by powder x-ray diffraction pattern,amorphous
